Source: PubChem BioAssay AID1259254 (NCATS, 2017)

Aim: 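Genome-wide screen for genes that prevent DNA re-replication in cancer cells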 (primary screen)
Cells: human HCT116 colorectal cancer cells
Reagent: single siRNA against human genes
Duration: 3 days
Read-out: 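Nuclei stained with Hoechst and imaged; cell-cycle phase assigned by DNA content; G2 share scaled per plate, non-targeting siRNA 0%, GMNN siRNA 100%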
Reading the numbers: G2 robust z-score: higher = more G2 cells, more excess DNA replication
Rule for the call: 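Active siRNAs have a G2 robust z of 5 or more median absolute deviations over the median, which in these data means about 38% or higher of GMNN control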
Here is a random part of about 59,000 deposited reagents. Over the whole deposit, about 1,550 (2.6%) are marked active. 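G2 share is only a proxy for re-replication; each gene was hit by three separate siRNAs, and active genes were retested.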 The numbers tell different reagents against one gene apart. Not all columns of the deposit are shown. The record does not give: the amount of reagent.

Target gene | reagent no. | G2 robust z-score | Outcome
P2RX4 | 1 | -1.28 | inactive
P2RX4 | 2 | -1.48 | inactive
P2RX4 | 3 | -0.64 | inactive
DGKB | 1 | -0.123 | inactive
DGKB | 2 | -0.647 | inactive
DGKB | 3 | 0.209 | inactive
ABTB2 | 1 | 6.28 | active
ABTB2 | 2 | -0.632 | inactive
ABTB2 | 3 | 4.35 | inactive
CDHR4 | 1 | -1.05 | inactive
CDHR4 | 2 | -0.0473 | inactive
CDHR4 | 3 | -0.659 | inactive
OR5H1 | 1 | -0.913 | inactive
OR5H1 | 2 | 0.452 | inactive
OR5H1 | 3 | 3.69 | inactive
BRD3 | 1 | -0.379 | inactive
BRD3 | 2 | 0.535 | inactive
BRD3 | 3 | 0.0569 | inactive
ELL3 | 1 | -0.785 | inactive
ELL3 | 2 | -0.896 | inactive
ELL3 | 3 | -0.887 | inactive
NUF2 | 1 | 5.39 | active
NUF2 | 2 | 2.57 | inactive
NUF2 | 3 | 2.84 | inactive
EIF3LP3 | 1 | 0.708 | inactive
EIF3LP3 | 2 | -0.259 | inactive
EIF3LP3 | 3 | -0.682 | inactive
KRT25 | 1 | 1.84 | inactive
KRT25 | 2 | 0.0527 | inactive
KRT25 | 3 | -0.413 | inactive
LOC728587 | 1 | -0.0176 | inactive
LOC728587 | 2 | -0.121 | inactive
LOC728587 | 3 | 0.496 | inactive
CASC16 | 1 | -0.162 | inactive
CASC16 | 2 | 1.67 | inactive
CASC16 | 3 | 0.967 | inactive
LMCD1 | 1 | 1.61 | inactive
LMCD1 | 2 | -0.915 | inactive
LMCD1 | 3 | -0.823 | inactive
MX1 | 1 | 0.282 | inactive
MX1 | 2 | 1.18 | inactive
MX1 | 3 | -0.62 | inactive
UBE2E2 | 1 | 6.82 | active
UBE2E2 | 2 | 0.728 | inactive
UBE2E2 | 3 | -0.673 | inactive
TCOF1 | 1 | 1.72 | inactive
TCOF1 | 2 | 0.125 | inactive
TCOF1 | 3 | 1.36 | inactive
MSI2 | 1 | 1.04 | inactive
MSI2 | 2 | 3.25 | inactive
MSI2 | 3 | -0.224 | inactive
CDK5RAP3 | 1 | 0.768 | inactive
CDK5RAP3 | 2 | 0.919 | inactive
CDK5RAP3 | 3 | -0.486 | inactive
NONO | 1 | 1.8 | inactive
NONO | 2 | -0.536 | inactive
NONO | 3 | 2.05 | inactive
SNX19 | 1 | -0.364 | inactive
SNX19 | 2 | -0.707 | inactive
SNX19 | 3 | -0.127 | inactive
ACAN | 1 | -0.954 | inactive
ACAN | 2 | -0.731 | inactive
ACAN | 3 | 0.275 | inactive
TCEANC2 | 1 | -1 | inactive
TCEANC2 | 2 | -0.781 | inactive
TCEANC2 | 3 | 0.328 | inactive
MASTL | 1 | 3.41 | inactive
MASTL | 2 | 2.1 | inactive
MASTL | 3 | 1.01 | inactive

As entered above:
Under “Outcome”, LOC728587 #1 shows inactive
CDK5RAP3 #2, G2 robust z-score → 0.919
Result for TCOF1 #2 in “G2 robust z-score”: 0.125
For “G2 robust z-score”, MSI2 #2 is entered as 3.25
ABTB2 #1, G2 robust z-score: 6.28
MX1 #2, G2 robust z-score = 1.18
